About 210 (0.4%) of roughly 52,000 sequences were called active.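 The calls were made as follows: active = gene whose silencing raises cell survival under the drug, median off-target-corrected z-score across its silencing RNAs 2 or more; inactive = the rest.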 The list shows a part of the results.
Assay: Resistance to Poly (ADP-Ribose) Polymerase inhibitor: Gene Identification via Genome-wide siRNA Screen
Conditions: mouse BRCA2 R2336H ES cells, olaparib, CellTiter-Glo viability; stronger effect = higher value
Outline: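 Mouse BRCA2 R2336H ES cells were reverse-transfected with siRNA (20 nM final), treated at 48 h with 500 nM olaparib, and read by CellTiter-Glo after 72 h. Scores: MAD-based z per siRNA, median per gene, seed off-target correction.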

Sequence | z-score
GGUAAAGAAGAUCGACAGCTT against Adrb1 | inactive: -0.362
GUACAACCACUAUGGCGACTT against Mfap2 | inactive: -0.877
GCAUAUUCUUCCAACUUCCTT against Sp8 | inactive: 1.2
GGGCAUAGAGUCUCAAACUTT against Ptger1 | inactive: 0.492
GCGGUAUCAUCAGUGAACCTT against Cxxc5 | inactive: -0.13
GGAGGCUGUGUUCUGAUGGTT against Mlycd | inactive: -2.38
GGCCAUUCUACUAACAGUATT against 1110014C03Rik | inactive: -1.05
CCUAACAACCAGUUUAUGATT against Rasa1 | inactive: 0.285
GGGAAAUUCUGUUCUUUUGTT against Gng11 | inactive: 0.319
GCAUAGGGUCAUUUCAAGCTT against Kif23 | inactive: 0.173
GCUCGUUUGAUGCUGUCUCTT against Prkag1 | inactive: -0.486
GGAGUAGAUGACAACACUATT against Defb19 | inactive: -0.629
GGAGUCUCUGAAGAAAACATT against Hus1 | inactive: -0.527
GGUUUUGGUUUUGUGGAAUTT against Sfrs5 | inactive: -0.339
GGCUUCAUUGACAAGAAUATT against Myo1g | inactive: -0.469
GGUGAAAGUCACUAAAUCCTT against V1rc6 | inactive: 1.44
GCCAAAUGGUGUCAAUAUUTT against Rab33a | inactive: -0.443
GGACAGAGAAAAAGUAUCATT against Eps8l1 | inactive: 0.0467
GGCUUUCAAAUGAUUAAAGTT against D430033N04Rik | inactive: 1.92
GCACUUUGUGCUAGAUGAATT against Ddx39 | inactive: -0.865
GGAGAUGGUUAUUUAAAGATT against Wbp2 | inactive: 1.53
CUCUGUCUUGAUUGUCAUUTT against Olfr1329 | inactive: -0.213
CCACUACAACAACACUUAUTT against Keg1 | inactive: 0.16
GGCAAUCUCCUUUAAUUGATT against 2810439M05Rik | inactive: 0.759
CCAUGGAUAUUAUCUGUACTT against Olfr538 | inactive: -0.725
GCACUUAGUCCUACAUGACTT against Fut1 | inactive: 0.125

Sequence | z-score
GCUAUCGUGAUAAUCUGGATT against BC049816 | inactive: -0.392
GGGUUACGGUUGUGGAUGUTT against Ugdh | inactive: 0.0867
GGGACAAUGAUGUUUUUGUTT against AI662250 | inactive: 0.0717
GGUGGAGAUGAUGGUUCAGTT against Tbxa2r | inactive: 1.75
CCACUCUUAAGAGGAUAUATT against 4930572J05Rik | inactive: -0.224
GGUGACCAGGCUUAAAUCGTT against Bet1l | inactive: 0.291
CGAAGUGACAAUAAAUCAGTT against Snapc5 | inactive: 1.18
GGGAAGAAGAGGAAGGAUUTT against Taf1a | inactive: -1.4
CGACCAUGUGACUUGUGUCTT against Lrp1b | inactive: -0.569
CCAUCGAAUGAAACUCAUGTT against Trim24 | inactive: 0.397
GGCAGCUCCUCAUGAUAUUTT against Nagk | inactive: 1.35
CGGAGAUUGUCCAAUGCAUTT against C630004H02Rik | inactive: -0.524
GGGCAAUGCUCAUGAGUUATT against Figf | inactive: 0.459
GGAAUUCCUUCGUUUCCUUTT against Usp2 | inactive: 0.187
GGAUUAGCCUGGUCCUUUUTT against Dusp14 | inactive: -0.621
GGACUCCAAGUCGCUCGUATT against 4930438O05Rik | inactive: -0.908
GUUCCUGUUCCACUACUGCTT against Sts | inactive: -1.51
GCGUGGUACCUCAAGUCUATT against Map3k5 | inactive: -0.437
GGAGGAAAGAAUGUGUAAATT against Birc3 | inactive: -0.544
GGUGUUAAACACUGAUUCUTT against Brs3 | inactive: -0.118
GGUGGUGGUGCUUUUUGACTT against 1810054O13Rik | inactive: -0.0935
CGCAUACUGUAAAAACUUCTT against 2310010B21Rik | inactive: 0.435
GGCACUCUCAGCUUUUGACTT against Olfr2 | inactive: -0.248
GGAUUUUAUCUCCUUUCAATT against Tecta | inactive: 1.5
GGAGAAACUUUUGUCUUCCTT against 2210409B01Rik | inactive: 1.17
GGCGUGGAAUCACUUUCCATT against B930093C12Rik | inactive: -0.421

Sequence | z-score
GGUCUGGAAUGGAGAACAGTT against Suox | inactive: 1.27
GAGCGAGUUCGAUUGCUUCTT against Cited4 | inactive: -0.0946
GCUUCGGAAUCGGUUACCATT against Alg2 | inactive: 0.756
GGAUAUCCAAGUAAGGUGUTT against Mrpl9 | inactive: 0.692
CCGAAGCUUUAUCUUCUAUTT against Pkd2 | inactive: 0.751
GGACAAAGGCUGUAUUUUCTT against Tgm3 | inactive: 1.61
GGUUCUGACUUGAGAAAACTT against BC022687 | inactive: -0.323
GCGAGAUGGAAGGAUCUUGTT against Anapc13 | inactive: -2.4
GGUUCUCAUACAUAAACAATT against 2410018C20Rik | inactive: 1.72
GGAAGAUGGGCGACUCUAUTT against AW209059 | inactive: -2
GGAUGGGUUUGAUCUUAAUTT against Il13ra2 | inactive: -0.495
GGGAAGAAAGACUCAAACUTT against Dcdc2 | inactive: 1.12
GGUAGACUCUAGAUUAAGATT against Srrm2 | inactive: -0.841
GCAAACGACUGUGACAAAATT against 2010109I03Rik | inactive: -0.0965
GCCAUUUUGCGUGUGGCACTT against Rutbc3 | inactive: 1.72
CCCUGCUUAACAAACCAACTT against Ggcx | inactive: 0.0222
CGAUUGGAAUGACCGAGAGTT against Ars2 | inactive: 0.331
GUGUAAGAUCUGACACUUUTT against 4833428E21Rik | inactive: 0.0682
GCAGAGGAUUGAUGCACACTT against LOC235779 | inactive: -1.08
GCCCAAACUAAAUAAAGGATT against Il1r2 | inactive: 0.935
GCUCAUCGGAGAGUUCUAUTT against Ube2h | inactive: 1.41
GCCCAUUGUAAGAGUAACUTT against 4930588M11Rik | inactive: 0.881
CCGGGAUGGAGAAUAAGCUTT against 2610306H15Rik | inactive: 0.679
GCCUUAUAUAGCAACAUACTT against Slc25a3 | inactive: -0.243
GAAAUGAGUCCUUGAAAAGTT against Olfr127 | inactive: 0.198
GGUAAAUGUCUGCUCUGAGTT against Selk | inactive: -0.626

An excerpt of these results, with tabs.
Sequence	z-score
GCGUGGUACCUCAAGUCUATT against Map3k5	inactive: -0.437
GGAGGAAAGAAUGUGUAAATT against Birc3	inactive: -0.544
GGUGUUAAACACUGAUUCUTT against Brs3	inactive: -0.118
GGUGGUGGUGCUUUUUGACTT against 1810054O13Rik	inactive: -0.0935
CGCAUACUGUAAAAACUUCTT against 2310010B21Rik	inactive: 0.435
GGCACUCUCAGCUUUUGACTT against Olfr2	inactive: -0.248
GGAUUUUAUCUCCUUUCAATT against Tecta	inactive: 1.5
GGAGAAACUUUUGUCUUCCTT against 2210409B01Rik	inactive: 1.17
GGCGUGGAAUCACUUUCCATT against B930093C12Rik	inactive: -0.421
GGUCUGGAAUGGAGAACAGTT against Suox	inactive: 1.27
GAGCGAGUUCGAUUGCUUCTT against Cited4	inactive: -0.0946
GCUUCGGAAUCGGUUACCATT against Alg2	inactive: 0.756
GGAUAUCCAAGUAAGGUGUTT against Mrpl9	inactive: 0.692
CCGAAGCUUUAUCUUCUAUTT against Pkd2	inactive: 0.751
GGACAAAGGCUGUAUUUUCTT against Tgm3	inactive: 1.61
GGUUCUGACUUGAGAAAACTT against BC022687	inactive: -0.323
GCGAGAUGGAAGGAUCUUGTT against Anapc13	inactive: -2.4
GGUUCUCAUACAUAAACAATT against 2410018C20Rik	inactive: 1.72
GGAAGAUGGGCGACUCUAUTT against AW209059	inactive: -2
GGAUGGGUUUGAUCUUAAUTT against Il13ra2	inactive: -0.495
GGGAAGAAAGACUCAAACUTT against Dcdc2	inactive: 1.12
GGUAGACUCUAGAUUAAGATT against Srrm2	inactive: -0.841
GCAAACGACUGUGACAAAATT against 2010109I03Rik	inactive: -0.0965
GCCAUUUUGCGUGUGGCACTT against Rutbc3	inactive: 1.72
CCCUGCUUAACAAACCAACTT against Ggcx	inactive: 0.0222
CGAUUGGAAUGACCGAGAGTT against Ars2	inactive: 0.331
GUGUAAGAUCUGACACUUUTT against 4833428E21Rik	inactive: 0.0682
GCAGAGGAUUGAUGCACACTT against LOC235779	inactive: -1.08
GCCCAAACUAAAUAAAGGATT against Il1r2	inactive: 0.935
GCUCAUCGGAGAGUUCUAUTT against Ube2h	inactive: 1.41
GCCCAUUGUAAGAGUAACUTT against 4930588M11Rik	inactive: 0.881
CCGGGAUGGAGAAUAAGCUTT against 2610306H15Rik	inactive: 0.679

Remaining list, next part

Sequence | z-score
CCACUUGGUGCUAAAAAAATT against Frag1 | inactive: -0.177
GGUCAUCGAAUCUGGAGUATT against BC027061 | inactive: 0.057
GGAUUUGAUGAUCUUUCCUTT against 5730458D16Rik | inactive: -1.2
CCUCAUAGAAUGAACAUGATT against Timp3 | inactive: -1.97
GCCAUUUCUUAUCAAGUGGTT against Laptm4a | inactive: 0.24
GGGAUAUUCACUUUUGUAGTT against Arnt | inactive: 0.553
CGUAGGUUGUAAUGGUGGCTT against BC051665 | inactive: -1.77
GGUAAAUCAAAUCACUGCCTT against Slamf1 | inactive: 1.2
GGAAGUUUGUUCAUCCCACTT against D6Ertd253e | inactive: 1.52
GCAUAAAGGAAUUGAUUCCTT against C330011K17Rik | inactive: 0.495
GGAGAUCUUCAAGAAUUCATT against Entpd5 | inactive: 0.275
GGCCAGAUCACCAAGAUUCTT against Wdr40a | inactive: 2.15
GGACUGAAGAAGUGUGUGGTT against Scgb3a2 | inactive: -2.67
CCAUGCUUCCCUUCAACAUTT against Adcy2 | inactive: 0.618
GGACCAUGAAGAGGAUCCUTT against Gja7 | inactive: 0.129
CCUGGGUCAAACAAAAAAGTT against 3110001I22Rik | inactive: 0.852
GGUUUCCAUAUUUGGAUCCTT against Dhx40 | inactive: 0.64
GCUAAUUUAUCCAAAGCCCTT against BC030335 | inactive: 0.743
GGUCUUGUCGAUGUUCGCATT against Abhd6 | inactive: 2.06
GGAGCAACAGAAAAAGUGATT against 1110063F24Rik | inactive: 0.624
GCGGUUUCUCCUUGGUAAATT against Ankmy1 | inactive: -0.0337
GGCCAAGUAGCCAUGGGAUTT against Lyl1 | inactive: -1.32
GGUUGAACUCAAAGUAAAGTT against Preb | inactive: 0.0884
GCUUAUUUGAAGUCUCAUGTT against Cpa5 | inactive: 0.317
GGGUGUUGUGUCCUCUCAATT against Gckr | inactive: 0.033
CCGGCACACCAUUGAUUUCTT against 4931428F04Rik | inactive: -0.492

Source: PubChem BioAssay AID1347423 (Functional Genomics Laboratory (NCATS/FGL), 2020)
